ChEMBL document CHEMBL3745705, “Discovery of Oral VEGFR-2 Inhibitors with Prolonged Ocular Retention That Are Efficacious in Models of Wet Age-Related Macular Degeneration” (J Med Chem, 2015)
Converted amounts (≈) assume the structure as drawn.

Assay: Aqueous solubility of the compound at pH 6.8
Details: buffer

Row | SMILES | solubility [µM]
1 | C[C@H]1Cc2c(ncnc2Oc2ccc3c(ccn3C(=O)Nc3cc(C4(C)CC4)n[nH]3)c2)CN1 | 450 (≈ 200 µg/mL)
2 | C[C@H]1Cc2c(ncnc2Oc2ccc3c(ccn3C(=O)Nc3cc(C(C)(C)C)on3)c2)CN1 | 126 (≈ 56.3 µg/mL)
